From the supplement of paper PMC12819154, “High-throughput peptide-centric local stability assay extends protein–ligand identification to membrane proteins, tissues and bacteria” (Nature Structural & Molecular Biology, 2025)
The other results are listed elsewhere or left out. Small differences around the control level are noise.

The chains behind the UniProt entries cited, without tags or fusion partners. Where a name states a change or a piece, a line headed by the entry shows the natural chain unless it says otherwise.
UniProt E9Q6J5: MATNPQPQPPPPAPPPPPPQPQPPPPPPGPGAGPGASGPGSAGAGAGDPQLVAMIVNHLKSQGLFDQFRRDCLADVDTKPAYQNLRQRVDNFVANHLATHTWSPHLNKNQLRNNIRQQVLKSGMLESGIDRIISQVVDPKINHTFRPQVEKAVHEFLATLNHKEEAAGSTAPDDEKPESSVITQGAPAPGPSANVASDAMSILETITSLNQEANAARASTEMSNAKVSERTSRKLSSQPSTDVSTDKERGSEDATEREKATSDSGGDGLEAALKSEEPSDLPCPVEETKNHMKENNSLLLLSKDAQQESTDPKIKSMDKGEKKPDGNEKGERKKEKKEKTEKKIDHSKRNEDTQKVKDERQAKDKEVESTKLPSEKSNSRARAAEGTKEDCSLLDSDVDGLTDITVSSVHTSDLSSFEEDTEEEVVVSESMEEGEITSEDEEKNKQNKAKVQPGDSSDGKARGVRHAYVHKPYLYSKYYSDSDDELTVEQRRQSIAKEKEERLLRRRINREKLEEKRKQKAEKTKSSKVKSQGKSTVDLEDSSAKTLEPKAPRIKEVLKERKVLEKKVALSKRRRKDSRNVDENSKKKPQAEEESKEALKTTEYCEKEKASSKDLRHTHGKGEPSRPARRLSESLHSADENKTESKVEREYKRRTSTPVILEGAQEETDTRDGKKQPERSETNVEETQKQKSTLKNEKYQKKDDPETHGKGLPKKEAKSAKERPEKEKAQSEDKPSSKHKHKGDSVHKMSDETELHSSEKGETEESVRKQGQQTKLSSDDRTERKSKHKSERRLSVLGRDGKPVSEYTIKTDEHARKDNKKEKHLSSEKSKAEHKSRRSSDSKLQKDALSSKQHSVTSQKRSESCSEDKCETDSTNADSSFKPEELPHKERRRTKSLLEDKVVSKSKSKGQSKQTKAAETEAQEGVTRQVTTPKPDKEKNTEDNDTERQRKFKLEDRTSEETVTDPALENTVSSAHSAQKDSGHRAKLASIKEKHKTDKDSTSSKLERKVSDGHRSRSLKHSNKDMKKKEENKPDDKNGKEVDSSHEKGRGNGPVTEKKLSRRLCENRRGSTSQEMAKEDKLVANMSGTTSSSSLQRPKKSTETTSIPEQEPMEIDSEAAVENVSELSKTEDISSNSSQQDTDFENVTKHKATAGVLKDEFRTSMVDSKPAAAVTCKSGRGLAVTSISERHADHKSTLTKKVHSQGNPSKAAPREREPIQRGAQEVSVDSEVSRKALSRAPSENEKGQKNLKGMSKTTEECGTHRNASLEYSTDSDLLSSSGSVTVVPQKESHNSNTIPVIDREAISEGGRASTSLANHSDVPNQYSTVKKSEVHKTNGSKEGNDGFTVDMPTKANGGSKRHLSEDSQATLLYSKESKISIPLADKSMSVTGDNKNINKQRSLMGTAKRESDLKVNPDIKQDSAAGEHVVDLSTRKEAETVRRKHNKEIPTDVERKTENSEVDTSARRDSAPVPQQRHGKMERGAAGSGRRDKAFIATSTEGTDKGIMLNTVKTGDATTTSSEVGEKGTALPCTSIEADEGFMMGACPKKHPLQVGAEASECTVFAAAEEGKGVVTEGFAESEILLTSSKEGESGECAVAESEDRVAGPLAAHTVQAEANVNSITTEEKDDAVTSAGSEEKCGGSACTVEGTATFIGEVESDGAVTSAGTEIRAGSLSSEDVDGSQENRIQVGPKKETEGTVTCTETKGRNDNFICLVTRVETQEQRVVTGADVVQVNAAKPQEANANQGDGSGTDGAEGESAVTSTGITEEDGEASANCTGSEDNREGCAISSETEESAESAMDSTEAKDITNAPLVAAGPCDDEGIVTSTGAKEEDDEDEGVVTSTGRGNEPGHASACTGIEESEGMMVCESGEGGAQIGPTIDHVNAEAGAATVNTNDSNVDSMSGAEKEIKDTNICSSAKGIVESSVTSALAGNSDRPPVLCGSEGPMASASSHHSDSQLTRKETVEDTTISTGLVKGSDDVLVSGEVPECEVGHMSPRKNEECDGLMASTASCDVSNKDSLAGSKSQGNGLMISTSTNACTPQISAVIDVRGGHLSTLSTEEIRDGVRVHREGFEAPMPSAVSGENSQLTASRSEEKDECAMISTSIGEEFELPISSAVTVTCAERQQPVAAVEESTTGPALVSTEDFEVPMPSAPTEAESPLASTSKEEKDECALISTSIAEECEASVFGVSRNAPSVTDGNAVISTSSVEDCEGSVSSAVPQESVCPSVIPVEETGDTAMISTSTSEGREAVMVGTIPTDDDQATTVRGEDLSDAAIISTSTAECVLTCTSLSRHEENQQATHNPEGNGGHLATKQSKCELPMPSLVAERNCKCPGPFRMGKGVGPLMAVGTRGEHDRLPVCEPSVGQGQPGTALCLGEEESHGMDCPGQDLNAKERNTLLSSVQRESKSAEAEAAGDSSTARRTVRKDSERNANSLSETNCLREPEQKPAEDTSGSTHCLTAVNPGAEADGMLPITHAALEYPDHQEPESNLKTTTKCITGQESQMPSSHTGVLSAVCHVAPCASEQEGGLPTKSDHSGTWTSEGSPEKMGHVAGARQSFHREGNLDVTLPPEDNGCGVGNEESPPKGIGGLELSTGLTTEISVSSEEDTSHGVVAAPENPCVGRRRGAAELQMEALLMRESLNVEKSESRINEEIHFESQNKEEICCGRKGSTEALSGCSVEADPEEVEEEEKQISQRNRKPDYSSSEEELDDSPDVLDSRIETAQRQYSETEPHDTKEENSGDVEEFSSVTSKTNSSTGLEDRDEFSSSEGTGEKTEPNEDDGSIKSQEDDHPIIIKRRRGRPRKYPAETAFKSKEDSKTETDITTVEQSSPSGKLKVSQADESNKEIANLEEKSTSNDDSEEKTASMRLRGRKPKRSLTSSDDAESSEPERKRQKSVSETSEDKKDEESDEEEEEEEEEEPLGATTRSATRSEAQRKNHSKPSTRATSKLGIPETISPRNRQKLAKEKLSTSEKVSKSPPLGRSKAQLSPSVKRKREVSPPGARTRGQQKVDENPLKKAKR
UniProt E9Q9D5: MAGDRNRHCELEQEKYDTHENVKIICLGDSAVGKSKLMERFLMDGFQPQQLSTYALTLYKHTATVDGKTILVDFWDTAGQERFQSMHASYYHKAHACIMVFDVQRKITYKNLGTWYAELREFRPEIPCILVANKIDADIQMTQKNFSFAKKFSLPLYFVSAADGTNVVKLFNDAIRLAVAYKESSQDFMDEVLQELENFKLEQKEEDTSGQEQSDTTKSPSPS
UniProt O08863, whole entry: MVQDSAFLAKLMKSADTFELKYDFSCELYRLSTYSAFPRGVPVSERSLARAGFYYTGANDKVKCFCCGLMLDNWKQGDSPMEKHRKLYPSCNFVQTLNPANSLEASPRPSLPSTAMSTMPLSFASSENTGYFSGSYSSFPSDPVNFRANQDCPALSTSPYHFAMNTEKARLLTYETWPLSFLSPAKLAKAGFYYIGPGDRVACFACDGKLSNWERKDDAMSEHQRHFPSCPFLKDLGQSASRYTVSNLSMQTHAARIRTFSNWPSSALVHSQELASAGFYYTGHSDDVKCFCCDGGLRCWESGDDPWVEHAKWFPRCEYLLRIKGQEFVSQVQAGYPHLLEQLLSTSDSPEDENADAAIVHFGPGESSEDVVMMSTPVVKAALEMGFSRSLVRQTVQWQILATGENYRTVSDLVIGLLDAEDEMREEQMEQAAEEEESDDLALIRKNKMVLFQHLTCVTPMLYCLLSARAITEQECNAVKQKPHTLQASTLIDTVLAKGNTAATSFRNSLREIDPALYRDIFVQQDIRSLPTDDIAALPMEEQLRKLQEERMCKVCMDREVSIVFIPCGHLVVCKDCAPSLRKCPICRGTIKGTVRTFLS
UniProt O35286: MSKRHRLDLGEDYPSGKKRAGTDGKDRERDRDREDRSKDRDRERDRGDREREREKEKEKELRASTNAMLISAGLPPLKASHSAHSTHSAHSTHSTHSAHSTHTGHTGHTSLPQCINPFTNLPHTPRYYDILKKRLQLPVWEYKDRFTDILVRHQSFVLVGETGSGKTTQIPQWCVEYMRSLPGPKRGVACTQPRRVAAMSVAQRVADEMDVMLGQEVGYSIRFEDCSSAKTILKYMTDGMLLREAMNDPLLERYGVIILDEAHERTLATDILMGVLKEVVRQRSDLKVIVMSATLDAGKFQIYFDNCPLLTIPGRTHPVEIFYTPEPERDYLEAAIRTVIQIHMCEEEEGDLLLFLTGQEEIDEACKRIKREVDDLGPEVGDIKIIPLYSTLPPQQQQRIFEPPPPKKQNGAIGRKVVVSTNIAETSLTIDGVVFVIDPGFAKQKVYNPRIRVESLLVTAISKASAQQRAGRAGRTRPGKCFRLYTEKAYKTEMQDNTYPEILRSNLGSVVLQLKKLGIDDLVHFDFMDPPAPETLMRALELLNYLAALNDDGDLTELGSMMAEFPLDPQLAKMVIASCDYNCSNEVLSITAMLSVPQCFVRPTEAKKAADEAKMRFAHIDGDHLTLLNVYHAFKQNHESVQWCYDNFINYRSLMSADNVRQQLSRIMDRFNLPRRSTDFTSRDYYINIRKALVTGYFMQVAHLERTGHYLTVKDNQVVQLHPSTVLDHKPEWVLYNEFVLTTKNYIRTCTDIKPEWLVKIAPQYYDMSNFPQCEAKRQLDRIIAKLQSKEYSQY
UniProt G5E8P0, whole entry: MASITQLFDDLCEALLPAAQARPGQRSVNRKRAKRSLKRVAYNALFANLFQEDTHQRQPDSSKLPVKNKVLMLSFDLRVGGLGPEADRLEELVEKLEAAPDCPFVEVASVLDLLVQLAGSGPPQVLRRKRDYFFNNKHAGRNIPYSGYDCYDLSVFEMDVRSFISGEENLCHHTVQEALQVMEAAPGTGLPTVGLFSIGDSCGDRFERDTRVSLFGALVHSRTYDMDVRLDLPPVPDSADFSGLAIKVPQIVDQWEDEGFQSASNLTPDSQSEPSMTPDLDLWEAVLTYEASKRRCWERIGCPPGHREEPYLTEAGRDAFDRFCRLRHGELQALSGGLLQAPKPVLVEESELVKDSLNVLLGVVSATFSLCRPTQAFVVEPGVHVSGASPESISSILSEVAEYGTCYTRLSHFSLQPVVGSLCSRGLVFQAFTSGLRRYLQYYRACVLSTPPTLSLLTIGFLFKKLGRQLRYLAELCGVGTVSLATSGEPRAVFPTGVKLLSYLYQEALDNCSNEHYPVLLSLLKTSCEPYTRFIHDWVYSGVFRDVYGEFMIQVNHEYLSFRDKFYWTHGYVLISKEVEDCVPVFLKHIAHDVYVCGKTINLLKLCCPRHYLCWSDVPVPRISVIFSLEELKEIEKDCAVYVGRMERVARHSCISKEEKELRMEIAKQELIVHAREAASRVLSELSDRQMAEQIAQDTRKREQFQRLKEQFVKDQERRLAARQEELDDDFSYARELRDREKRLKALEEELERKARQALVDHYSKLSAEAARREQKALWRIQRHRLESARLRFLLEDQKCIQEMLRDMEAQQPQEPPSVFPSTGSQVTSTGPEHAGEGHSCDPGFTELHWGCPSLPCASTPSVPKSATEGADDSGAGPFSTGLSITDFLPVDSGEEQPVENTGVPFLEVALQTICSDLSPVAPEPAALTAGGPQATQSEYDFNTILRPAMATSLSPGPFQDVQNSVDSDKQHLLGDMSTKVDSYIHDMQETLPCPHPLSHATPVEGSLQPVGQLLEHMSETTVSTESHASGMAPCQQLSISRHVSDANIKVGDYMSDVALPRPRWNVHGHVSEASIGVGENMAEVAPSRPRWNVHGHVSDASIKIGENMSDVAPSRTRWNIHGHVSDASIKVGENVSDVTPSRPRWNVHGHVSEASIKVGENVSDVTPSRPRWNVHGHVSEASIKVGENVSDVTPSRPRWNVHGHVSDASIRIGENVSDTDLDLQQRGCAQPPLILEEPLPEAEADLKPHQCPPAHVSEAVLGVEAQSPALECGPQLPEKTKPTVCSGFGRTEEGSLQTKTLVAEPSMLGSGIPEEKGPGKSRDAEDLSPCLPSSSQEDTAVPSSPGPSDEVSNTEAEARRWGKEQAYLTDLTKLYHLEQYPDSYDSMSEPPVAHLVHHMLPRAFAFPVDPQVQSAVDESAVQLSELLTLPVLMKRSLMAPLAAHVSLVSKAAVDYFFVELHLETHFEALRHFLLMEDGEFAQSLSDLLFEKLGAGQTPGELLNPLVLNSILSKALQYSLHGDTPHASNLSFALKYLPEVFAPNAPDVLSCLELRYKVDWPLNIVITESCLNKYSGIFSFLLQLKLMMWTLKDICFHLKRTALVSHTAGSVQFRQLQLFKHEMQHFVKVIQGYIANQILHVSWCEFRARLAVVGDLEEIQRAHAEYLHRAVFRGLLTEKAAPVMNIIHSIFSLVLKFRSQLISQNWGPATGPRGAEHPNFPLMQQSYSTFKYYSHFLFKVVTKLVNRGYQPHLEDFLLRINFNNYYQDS

These targets were tested with CN[C@@H]1C[C@H]2O[C@@](C)([C@@H]1OC)n1c3ccccc3c3c4c(c5c6ccccc6n2c5c31)C(=O)NC4 [staurosporine] (assay: log2 fold change of tryptic peptide abundance, ligand vs vehicle (limited proteolysis) (log2 ratio); higher = more trypsin-susceptible (destabilized)). Settings: ligand concentration: 20 uM; sample: mouse liver crude lysate; replicate design: treated separately.
With “UniProt E9PZM4 (peptide sequence: FTEFDAR, peptide start residue: 1540)” the log2 fold change was 0.307. For “UniProt E9Q6J5 (peptide sequence: KTENSEVDTSAR, peptide start residue: 1456)”, the log2 fold change was -1.18. Work on “UniProt O35144 (peptide sequence: KDEHESAAPAEGEGGSDRQPR, peptide start residue: 377)” yielded a log2 fold change of 0.458. “UniProt D3YXK2 (peptide sequence: DGWGYGSNK, peptide start residue: 818)” was tested, and the log2 fold change was -0.26. “UniProt O35344 (peptide sequence: SGILPILVK, peptide start residue: 113)” gave a log2 fold change of -0.144. With “UniProt O09053 (peptide sequence: VICGPTNTETR, peptide start residue: 292)” the log2 fold change was -0.456. For “UniProt O35298 (peptide sequence: DGIPYEKK, peptide start residue: 239)”, the log2 fold change was 0.145. “UniProt E9Q9D5 (peptide sequence: FQSMHASYYHK, peptide start residue: 83)” was tested, and the log2 fold change was 0.407. “UniProt E9Q634 (peptide sequence: NQFVPPPHAFGNQR, peptide start residue: 968)” was tested, and the log2 fold change was -0.342. For “UniProt E9QAT4 (peptide sequence: AESTLEPK, peptide start residue: 2277)”, the log2 fold change was -0.227. “UniProt O08739 (peptide sequence: LNMSDLDEHVR, peptide start residue: 8)” showed a log2 fold change of 0.195. “UniProt B9EKI3 (peptide sequence: QVLDGKEEVEK, peptide start residue: 607)” showed a log2 fold change of 0.691. “UniProt F8VPU2 (peptide sequence: ACTLELGPHQSPALPK, peptide start residue: 417)” was tested, and the log2 fold change was -0.124. Work on “UniProt G3X8U3 (peptide sequence: SLHELNPR, peptide start residue: 49)” yielded a log2 fold change of 0.384. For “UniProt E9PYI1 (peptide sequence: IHTGEKPYK, peptide start residue: 104)”, the log2 fold change was 0.143. Work on “UniProt E9PXF8 (peptide sequence: SFEGTLYKR, peptide start residue: 1768)” yielded a log2 fold change of 0.601. With “UniProt F8VQB6 (peptide sequence: VAVNNFGVK, peptide start residue: 539)” the log2 fold change was -0.279. “UniProt E0CYC6 (peptide sequence: QYQDSDHK, peptide start residue: 8)” was tested, and the log2 fold change was 0.309. “UniProt O08863 (peptide sequence: AALEMGFSR, peptide start residue: 392)” gave a log2 fold change of -0.0856. For “UniProt O35381 (peptide sequence: IKDLSTIEPLK, peptide start residue: 100)”, the log2 fold change was 0.158. Target “UniProt E9PYH6 (peptide sequence: RSENSYQDSFSR, peptide start residue: 300)” has a log2 fold change of -0.451. With “UniProt O35286 (peptide sequence: YYDILKK, peptide start residue: 127)” the log2 fold change was 0.14. “UniProt O08638 (peptide sequence: SKLQEVEGAVK, peptide start residue: 1799)” showed a log2 fold change of 0.303. “UniProt B2RXR6 (peptide sequence: HGHELLINTLITSGADTAK, peptide start residue: 349)” showed a log2 fold change of -0.681. Target “UniProt F8VPK0 (peptide sequence: LVALYHQEK, peptide start residue: 122)” has a log2 fold change of 0.222. “UniProt O08788 (peptide sequence: KLDSAAKDADER, peptide start residue: 979)” gave a log2 fold change of 0.855. In the case of “UniProt G3X9G7 (peptide sequence: SLPGVHNVSTLSDTSK, peptide start residue: 72)”, the log2 fold change is reported as 0.243. Work on “UniProt G5E8P0 (peptide sequence: WNVHGHVSDASIK, peptide start residue: 1092)” yielded a log2 fold change of 0.397. “UniProt E9PUQ8 (peptide sequence: VLCETVKDFVAR, peptide start residue: 506)” showed a log2 fold change of -0.306. In the case of “UniProt E9Q5K9 (peptide sequence: KLNLAFR, peptide start residue: 387)”, the log2 fold change is reported as 0.369. Target “UniProt E9Q236 (peptide sequence: ERYEKVIK, peptide start residue: 502)” has a log2 fold change of 0.0647.
